Some of these results come from one statement about several compounds together.
Target: T1, B-Raf (V599E or Wild Type) (Homo sapiens, UniProt P15056)
T1 construct: Enzymatically active wild-type B-Raf was purchased from Upstate (cat#14-530); Enzymatically active mutant B-Raf(V599E) was purified in house; fused on or other part: None is printed; By knowledge, Upstate 14-530 is an N-terminally GST-tagged truncated human B-Raf; the tag is not part of the key
Test: B-Raf Flash Plate Assay
Type: biochemical
Details: bin: less than or equal to 100 nM

Protein sequences, listed by entry. Tags and fused reporters are not part of them.
UniProt P15056, whole entry, stated change not applied: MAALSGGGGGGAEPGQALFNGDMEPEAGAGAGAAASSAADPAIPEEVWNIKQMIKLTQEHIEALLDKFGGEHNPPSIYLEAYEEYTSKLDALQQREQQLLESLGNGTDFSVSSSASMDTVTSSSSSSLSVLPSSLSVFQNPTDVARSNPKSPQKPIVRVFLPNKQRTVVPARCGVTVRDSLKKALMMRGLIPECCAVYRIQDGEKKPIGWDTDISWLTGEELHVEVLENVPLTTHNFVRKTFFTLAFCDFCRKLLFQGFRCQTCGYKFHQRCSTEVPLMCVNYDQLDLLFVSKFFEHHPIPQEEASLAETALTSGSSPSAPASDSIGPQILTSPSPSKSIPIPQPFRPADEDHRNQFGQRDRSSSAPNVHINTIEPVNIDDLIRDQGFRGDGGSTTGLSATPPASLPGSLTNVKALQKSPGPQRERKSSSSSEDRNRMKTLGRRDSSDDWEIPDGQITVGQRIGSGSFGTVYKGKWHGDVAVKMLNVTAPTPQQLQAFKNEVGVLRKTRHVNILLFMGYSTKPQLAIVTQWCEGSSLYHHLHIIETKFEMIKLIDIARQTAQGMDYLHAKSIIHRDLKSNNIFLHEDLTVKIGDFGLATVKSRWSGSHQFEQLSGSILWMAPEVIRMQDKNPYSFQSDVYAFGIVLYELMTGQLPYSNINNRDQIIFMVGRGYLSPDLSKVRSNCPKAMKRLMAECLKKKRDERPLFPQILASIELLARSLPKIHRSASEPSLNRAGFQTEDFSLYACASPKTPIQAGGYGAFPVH

| SMILES | IC50 |
| --- | --- |
| O=C(c1cnc(-c2ccccn2)[nH]1)N1N=C(c2cccnc2)CC1c1c(O)cccc1F (centres unmarked) [Compound I-274, 3-fluoro-2-{3-pyridin-3-yl-1-[(2-pyridin-2-yl-1H-imidazol-5-yl)carbonyl]-4,5-dihydro-1H-pyrazol-5-yl}phenol] | ≤ 100 nM |
| O=C(c1cnc(-c2ccccc2)[nH]1)N1N=C(c2cccnc2)CC1c1c(O)cccc1F (centres unmarked) [Compound I-314, 3-fluoro-2-{1-[(2-phenyl-1H-imidazol-5-yl)carbonyl]-3-pyridin-3-yl-4,5-dihydro-1H-pyrazo1-5-yl}pheno1] | ≤ 100 nM |
| O=C(c1cnn(-c2ccccn2)c1)N1N=C(c2cccnc2)CC1c1ccccc1O (centres unmarked) [Compound I-82, 2-{3-pyridin-3-yl-1-[(1-pyridin-2-yl-1H-pyrazol-4-yl)carbonyl]-4,5-dihydro-1H-pyrazol-5-yl}phenol] | ≤ 100 nM |
| COc1cccc(O)c1C1CC(c2cccnc2)=NN1C(=O)c1ccc(-c2ccccn2)s1 (centres unmarked) [Compound I-181, 3-methoxy-2-{3-pyridin-3-yl-1-[(5-pyridin-2-yl-2-thienyl)carbonyl]-4,5-dihydro-1H-pyrazol-5-yl}phenol] | ≤ 100 nM |
| O=C(c1ccc(-c2ccccc2CO)s1)N1N=C(c2cccnc2)CC1c1ccccc1O (centres unmarked) [Compound I-99, 2-[1-({5-[2-(hydroxymethyl)phenyl]-2-thienyl}carbonyl)-3-pyridin-3-yl-4,5-dihydro-1H-pyrazol-5-yl]phenol] | ≤ 100 nM |
| O=C(c1ccc(-c2ccc3c(c2)CCNC3)s1)N1N=C(c2cccnc2)CC1c1c(O)cccc1F (centres unmarked) [Compound I-232, 3-fluoro-2-(3-pyridin-3-yl-1-{[5-(1,2,3,4-tetrahydroisoquinolin-6-yl)-2-thienyl]carbonyl}-4,5-dihydro-1H-pyrazol-5-yl)phenol] | ≤ 100 nM |
| O=C(c1ccc(-c2ccccn2)s1)N1N=C(c2cncc(CO)c2)CC1c1ccccc1O (centres unmarked) [Compound I-273, 2-{3-[5-(hydroxymethyl)pyridin-3-yl]-1-[(5-pyridin-2-yl-2-thienyl)carbonyl]-4,5-dihydro-1H-pyrazol-5-yl}phenol] | ≤ 100 nM |
| O=C(c1ccc(-c2ccccc2)s1)N1N=C(c2cccnc2)CC1c1ccccc1O (centres unmarked) [Compound I-69, 2-{1-[(5-phenyl-2-thienyl)carbonyl]-3-pyridin-3-yl-4,5-dihydro-1H-pyrazol-5-yl}phenol] | ≤ 100 nM |
| O=C(c1cc(-c2ccccc2)n[nH]1)N1N=C(c2cccnc2)CC1c1ccccc1O (centres unmarked) [Compound I-177, 2-{1-[(3-phenyl-1H-pyrazol-5-yl)carbonyl]-3-pyridin-3-yl-4,5-dihydro-1H-pyrazol-5-yl}phenol] | ≤ 100 nM |
| Cc1nc(-c2ccccc2)sc1C(=O)N1N=C(c2cccnc2)CC1c1ccccc1O (centres unmarked) [Compound I-111, 2-{1-[(4-methyl-2-phenyl-1,3-thiazol-5-yl)carbonyl]-3-pyridin-3-yl-4,5-dihydro-1H-pyrazol-5-yl}phenol] | ≤ 100 nM |
| Cc1cc(C(=O)NCc2cc(C(=O)N3N=C(c4cccnc4)CC3c3ccccc3O)co2)co1 (centres unmarked) [Compound I-160, N-[(4-{[5-(2-hydroxyphenyl)-3-pyridin-3-yl-4,5-dihydro-1H-pyrazol-1-yl]carbonyl}-2-furyl)methyl]-5-methyl-3-furamide] | ≤ 100 nM |
| O=C(N[C@H]1CCN(Cc2ccccc2)C1)N1N=C(c2cccnc2)CC1c1ccccc1O (stereo partly drawn) [Compound I-251, N-[(3S)-1-benzylpyrrolidin-3-yl]-5-(2-hydroxyphenyl)-3-pyridin-3-yl-4,5-dihydro-1H-pyrazole-1-carboxamide] | ≤ 100 nM |
| O=C(c1ccc(-c2cccs2)s1)N1N=C(c2cccnc2)CC1c1ccccc1O (centres unmarked) [Compound I-74, 2-[1-(2,2′-bithien-5-ylcarbonyl)-3-pyridin-3-yl-4,5-dihydro-1H-pyrazol-5-yl]phenol] | ≤ 100 nM |
| O=C(Nc1cccnc1Sc1ccccc1)N1N=C(c2cccnc2)CC1c1ccccc1O (centres unmarked) [Compound I-307, 5-(2-hydroxyphenyl)-N-[2-(phenylsulfanyl)pyridin-3-yl]3-pyridin-3-yl-4,5-dihydro-1H-pyrazole-1-carboxamide] | ≤ 100 nM |
| O=C(c1cn(-c2ccccc2)cn1)N1N=C(c2cccnc2)CC1c1c(O)cccc1F (centres unmarked) [Compound I-227, 3-fluoro-2-{1-[(1-phenyl-1H-imidazol-4-yl)carbonyl]-3-pyridin-3-yl-4,5-dihydro-1H-pyrazol-5-yl}phenol] | ≤ 100 nM |
| O=C(c1ccc(-c2cccc(CN3CCCC3)c2)s1)N1N=C(c2cccnc2)CC1c1ccccc1O (centres unmarked) [Compound I-106, 2-[3-pyridin-3-yl-1-({5-[3-(pyrrolidin-1-ylmethyl)phenyl]-2-thienyl}carbonyl)-4,5-dihydro-1H-pyrazol-5-yl]phenol] | ≤ 100 nM |
| O=C(c1ccc(-c2ccc(CO)cc2)s1)N1N=C(c2cccnc2)CC1c1ccccc1O (centres unmarked) [Compound I-194, 2-[1-({5-[4-(hydroxymethyl)phenyl]-2-thienyl}carbonyl)-3-pyridin-3-yl-4,5-dihydro-1H-pyrazol-5-yl]phenol] | ≤ 100 nM |
| NCc1ccc(-c2ccc(C(=O)N3N=C(c4cccnc4)CC3c3ccccc3O)s2)cc1 (centres unmarked) [Compound 1-193] | ≤ 100 nM |
| O=C(c1cc(-c2cccc(O)c2)on1)N1N=C(c2cccnc2)CC1c1ccccc1O (centres unmarked) [Compound I-130, 2-(1-{[5-(3-hydroxyphenyl)isoxazol-3-yl]carbonyl}-3-pyridin-3-yl-4,5-dihydro-1H-pyrazol-5-yl)phenol] | ≤ 100 nM |
| CNCc1ccccc1-c1ccc(C(=O)N2N=C(c3cccnc3)CC2c2ccccc2O)s1 (centres unmarked) [Compound I-156, 2-{1-[(5-{2-[(methylamino)methyl]phenyl}-2-thienyl)carbonyl]-3-pyridin-3-yl-4,5-dihydro-1H-pyrazol-5-yl}phenol] | ≤ 100 nM |
| O=C(Nc1ccc(-c2cnco2)cc1)N1N=C(c2cccnc2)CC1c1ccccc1O (centres unmarked) [Compound I-237, 5-(2-hydroxyphenyl)-N-[4-(1,3-oxazol-5-yl)phenyl]-3-pyridin-3-yl-4,5-dihydro-1H-pyrazole-1-carboxamide] | ≤ 100 nM |
| COc1ccc(-c2ccc(C(=O)N3N=C(c4cccnc4)CC3c3ccccc3O)s2)cn1 (centres unmarked) [Compound I-108, 2-(1-{[5-(6-methoxypyridin-3-yl)-2-thienyl]carbonyl}-3-pyridin-3-yl-4,5-dihydro-1H-pyrazol-5-yl)phenol] | ≤ 100 nM |
| O=C(c1cc(-c2cccs2)n[nH]1)N1N=C(c2cccnc2)CC1c1ccccc1O (centres unmarked) [Compound I-116, 2-(3-pyridin-3-yl-1-{[3-(2-thienyl)-1H-pyrazol-5-yl]carbonyl}-4,5-dihydro-1H-pyrazol-5-yl)phenol] | ≤ 100 nM |
| Cc1c(C(=O)N2N=C(c3cccnc3)CC2c2ccccc2O)cnn1-c1ccccc1 (centres unmarked) [Compound I-35, 2-{1-[(5-methyl-1-phenyl-1H-pyrazol-4-yl)carbonyl]-3-pyridin-3-yl-4,5-dihydro-1H-pyrazol-5-yl}phenol] | ≤ 100 nM |
| NCc1ccccc1-c1ccc(C(=O)N2N=C(c3cncc(N)c3)CC2c2c(O)cccc2F)s1 (centres unmarked) [Compound I-282, 2-[1-({5-[2-(aminomethyl)phenyl]-2-thienyl}carbonyl)-3-(5-aminopyridin-3-yl)-4,5-dihydro-1H-pyrazol-5-yl]-3-flurophenol] | ≤ 100 nM |
| O=C(c1ccc(-c2cccc(CN3CCCC3)c2)s1)N1N=C(c2cccnc2)CC1c1c(O)cccc1F (centres unmarked) [Compound I-257, 3-fluoro-2-[3-pyridin-3-yl-1-({5-[3-(pyrrolidin-1-ylmethyl)phenyl]-2-thienyl}carbonyl)-4,5-dihydro-1H-pyrazol-5-yl]phenol] | ≤ 100 nM |
